# From patent publication US20180016581
# By UniProt entry, the sequences of proteins in these tests, tags left out. Residues count along the entry.
# UniProt O14793, 267-375: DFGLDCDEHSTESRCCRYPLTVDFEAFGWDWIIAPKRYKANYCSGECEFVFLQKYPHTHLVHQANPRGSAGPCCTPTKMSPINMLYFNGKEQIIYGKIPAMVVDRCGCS
# For part of these data: Protein sequences can lack the tags named with them. For part of these data: Construct, isoform or probe ends are uncertain for at least one entry.
# Legend:
# [1] = biological target: GDF8 (myostatin), mature (Homo sapiens) (UniProt O14793); assay: binding assay; details: TrpdU at each W (n in listing), purified recombinant protein, single-stranded DNA
# [2] = biological target: T1, GDF11, mature (Homo sapiens) (UniProt O95390); assay: binding assay; details: TrpdU at each W (n in listing); with Z-block; purified recombinant protein; protein details: untagged; single-stranded DNA; variant of 14583-49_3
# T1 sequence: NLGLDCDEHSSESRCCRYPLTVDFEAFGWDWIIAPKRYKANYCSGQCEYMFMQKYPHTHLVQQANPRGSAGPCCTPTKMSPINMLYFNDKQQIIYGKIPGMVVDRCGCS
Sequence,Kd [1] [nM],also measured
GTTAGAGTCCTTTATGAGTCTAG [14583-49_30],,"binding result ([1]; 23-mer binds, 24-mer 14583-49_29 slightly better, with Z-block, variant of 14583-49_3): binds"
ATTACGGCATTAGTGTTAGAGTCCTTTATGTAGCTCTAGATG [14583-49_37],> 320,
ATACAGTCTTAGTGTTAGTGTTCTTTATGAGTCTAGACTG [14583-49_35],9.8,
ATACGGTCTTAGTGTTAGAGTCCCTTTTATGAGTCTAGATTG [14583-49_36],17.3,
TGTTAGAGTCCTTTATGAGTCTAG [14583-49_29],,Kd [2]: > 320 nM
ATACGACCTAGTGTTACGAGGTCCTTTATGAGTCTAGACGTA [14583-49_38],> 320,
